For two substances, binding results are on record in publication PMC6848426 (Rice, 2019).

The chains behind the UniProt entries cited, without tags or fusion partners. Where a name states a change or a piece, a line headed by the entry shows the natural chain unless it says otherwise.
UniProt Q0JL44: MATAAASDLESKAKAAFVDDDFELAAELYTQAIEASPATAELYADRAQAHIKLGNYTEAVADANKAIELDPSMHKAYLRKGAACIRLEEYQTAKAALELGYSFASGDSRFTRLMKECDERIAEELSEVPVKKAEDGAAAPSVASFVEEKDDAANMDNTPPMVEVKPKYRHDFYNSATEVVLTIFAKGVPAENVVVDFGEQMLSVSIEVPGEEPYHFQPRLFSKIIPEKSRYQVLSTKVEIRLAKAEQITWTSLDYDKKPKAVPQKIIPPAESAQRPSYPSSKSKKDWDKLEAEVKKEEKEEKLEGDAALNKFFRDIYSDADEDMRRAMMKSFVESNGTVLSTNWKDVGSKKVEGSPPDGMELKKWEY

Results are given in words; binding and its absence hold for the method and conditions named. Binding calls can cover weak binding; strength is not graded here. Tags and fused reporters may be left off the sequences shown. For some assays here: In cells and extracts the contact can be indirect.

Assay [1] has as its target T1, NYFP-OsSAPK9 (rice (Oryza sativa L.)) (UniProt Q75V57).
T1 sequence: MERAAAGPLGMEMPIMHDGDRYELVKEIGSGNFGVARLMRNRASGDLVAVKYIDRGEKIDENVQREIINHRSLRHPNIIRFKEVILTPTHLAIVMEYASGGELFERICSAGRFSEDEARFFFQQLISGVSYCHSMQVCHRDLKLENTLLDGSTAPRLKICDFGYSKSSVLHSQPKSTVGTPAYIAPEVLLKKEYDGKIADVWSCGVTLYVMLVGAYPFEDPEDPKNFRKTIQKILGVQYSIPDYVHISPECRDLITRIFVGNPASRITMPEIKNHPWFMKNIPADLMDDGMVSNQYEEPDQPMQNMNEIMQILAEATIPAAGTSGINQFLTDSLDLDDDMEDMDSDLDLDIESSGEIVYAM
Kind of assay: split reporter; BiFC in Agrobacterium-infiltrated N. benthamiana leaves, NYFP and CCFP fusions, confocal microscopy 48-72 h after infiltration.

In assay [2] the target is T2, BD-OsSAPK9 (rice (Oryza sativa L.)) (UniProt Q75V57).
T2 sequence: T1 sequence
Description: two-hybrid.

With CCFP-OsHsp90 (from UniProt Q69QQ6), in assay [1], the binding result was “binds”.

Consider “ΔSGS of OsSGT1 (yeast two-hybrid) (from UniProt Q0JL44) (domain or fragment)”, for which the binding entry in assay [2] is on record as “binds”.
